Experimental findings from article PMC12420274 are described below.

Amino acid sequences for entries named in this document (tags omitted). A change or cut given only in a name is not applied to a line headed by its entry. Residues count along the entry.
UniProt P24071, residues 22-287: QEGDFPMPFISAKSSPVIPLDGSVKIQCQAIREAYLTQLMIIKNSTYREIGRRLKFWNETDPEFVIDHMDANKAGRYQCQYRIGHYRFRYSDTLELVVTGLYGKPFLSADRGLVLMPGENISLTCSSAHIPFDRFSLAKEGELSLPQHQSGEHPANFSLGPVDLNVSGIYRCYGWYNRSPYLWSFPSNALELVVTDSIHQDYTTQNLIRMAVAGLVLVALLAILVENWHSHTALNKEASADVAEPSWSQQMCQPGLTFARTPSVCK
UniProt O60239: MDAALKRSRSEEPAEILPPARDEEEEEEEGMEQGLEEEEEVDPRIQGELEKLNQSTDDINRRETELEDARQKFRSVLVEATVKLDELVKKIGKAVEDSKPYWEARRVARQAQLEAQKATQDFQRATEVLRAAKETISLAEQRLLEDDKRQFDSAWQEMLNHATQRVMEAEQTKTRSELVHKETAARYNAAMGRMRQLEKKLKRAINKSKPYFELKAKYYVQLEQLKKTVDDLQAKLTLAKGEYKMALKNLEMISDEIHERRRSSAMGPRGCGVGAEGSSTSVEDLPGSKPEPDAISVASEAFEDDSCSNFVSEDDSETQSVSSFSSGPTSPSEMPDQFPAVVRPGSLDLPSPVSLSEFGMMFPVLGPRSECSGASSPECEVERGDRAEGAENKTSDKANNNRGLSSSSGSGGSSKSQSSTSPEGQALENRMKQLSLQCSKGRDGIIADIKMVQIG

No constants are given. Whether binding was seen depends on the method and setting. Binding seen in cells or lysates may run through a third protein. A result given as binding can be weak or reduced; the word gives no strength.

The target of this assay is FcαRI Ser^248, endogenous in human myeloid cells (human (endogenous in U937, THP-1, HL-60 and primary leukocytes)) (UniProt P24071). Kind of assay: co-IP + pull-down; lysates of U937 cells stably expressing His6-SabΔ31; FcαRI immunoprecipitated or His6-Sab pulled down on a nickel Sepharose column; immunoblot for Sab and FcαRI. On the technique in general: In western blotting, separated proteins are transferred to a membrane and probed.

As to “His6-SabΔ31, dominant-negative Sab lacking 31 amino acid residues required for Btk binding (from UniProt O60239)”, the binding entry is listed as “binds”.
